# Test results from article PMC10079926.
# Chains of the proteins cited; added tags and fusions are not shown.
# UniProt Q07812: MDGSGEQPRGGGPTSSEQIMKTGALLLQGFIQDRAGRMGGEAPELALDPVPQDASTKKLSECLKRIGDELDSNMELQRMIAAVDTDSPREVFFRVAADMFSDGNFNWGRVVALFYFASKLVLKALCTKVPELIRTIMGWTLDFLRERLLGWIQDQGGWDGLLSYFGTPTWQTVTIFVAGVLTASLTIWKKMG
# UniProt O00429: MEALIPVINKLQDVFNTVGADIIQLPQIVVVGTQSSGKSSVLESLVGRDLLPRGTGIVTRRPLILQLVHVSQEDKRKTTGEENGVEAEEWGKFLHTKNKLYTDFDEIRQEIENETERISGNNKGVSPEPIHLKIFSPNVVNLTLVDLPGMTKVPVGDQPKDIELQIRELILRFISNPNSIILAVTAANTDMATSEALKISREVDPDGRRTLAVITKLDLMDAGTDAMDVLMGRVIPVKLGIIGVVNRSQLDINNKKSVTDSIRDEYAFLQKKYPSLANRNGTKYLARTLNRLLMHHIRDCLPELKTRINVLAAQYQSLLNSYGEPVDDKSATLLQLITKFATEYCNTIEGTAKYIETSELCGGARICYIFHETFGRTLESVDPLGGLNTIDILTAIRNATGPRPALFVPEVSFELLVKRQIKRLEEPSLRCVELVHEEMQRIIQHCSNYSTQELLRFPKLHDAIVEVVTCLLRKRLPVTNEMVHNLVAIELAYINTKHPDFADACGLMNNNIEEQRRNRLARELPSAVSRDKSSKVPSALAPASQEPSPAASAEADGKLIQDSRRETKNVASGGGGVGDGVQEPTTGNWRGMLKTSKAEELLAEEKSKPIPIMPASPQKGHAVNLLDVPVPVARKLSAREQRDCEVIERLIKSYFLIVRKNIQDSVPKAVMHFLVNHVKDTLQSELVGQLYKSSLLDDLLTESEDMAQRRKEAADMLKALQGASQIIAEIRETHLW
# No constants are given. Whether binding was seen depends on the method and setting. Binding seen in cells or lysates may run through a third protein. Some results given as binding are weak or reduced against the parent protein; the word gives no strength.
# Biological target: T1, PGAM5 (phosphoglycerate mutase family member 5, a mitochondrial phosphatase) (human (endogenous in Cal33 and HN6)) (UniProt Q96HS1)
# T1 sequence: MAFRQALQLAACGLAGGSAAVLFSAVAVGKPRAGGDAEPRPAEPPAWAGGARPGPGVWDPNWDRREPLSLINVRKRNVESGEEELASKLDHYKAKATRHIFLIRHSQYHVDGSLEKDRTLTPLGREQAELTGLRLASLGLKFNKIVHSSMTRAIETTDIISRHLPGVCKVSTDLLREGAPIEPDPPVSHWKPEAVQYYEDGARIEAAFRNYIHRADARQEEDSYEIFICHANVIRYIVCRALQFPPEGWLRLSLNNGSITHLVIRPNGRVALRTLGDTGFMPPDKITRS
# Test: co-IP; co-IP/WB of endogenous proteins in Cal33 and HN6 cells with vector or TIPE3-HA overexpression; IP lysis buffer, antibody overnight at 4 °C, protein A/G Sepharose beads
row,binding,Substance
1,binds,BAX (from UniProt Q07812 1-192)
2,binds,DRP1 (dynamin-like protein) (from UniProt O00429 1-736) (enzyme)
